# Record: PubChem BioAssay AID1259424 (University of Nebraska Medical Center, 2018)
# Purpose: 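Rank knockdowns across the genome by resemblance to the KSR1 depletion profile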 (primary screen)
# Cells: human HCT116 colon cancer cells
# Reagents: siRNA pool against human genes, 50 nM
# Measured: 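Six signature mRNAs by branched-DNA multiplex assay, scaled to two housekeeping genes and non-targeting median, log2; matched to mean KSR1 knockdown profile by Pearson correlation and euclidean distance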
# Scale: mean correlation with KSR1 profile and KSR1 correlation: higher = expression change more like KSR1 knockdown; mean distance from KSR1 profile: higher = expression change less like KSR1 knockdown
# Shown is an unselected part of about 14,000 reagents tested. 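Higher correlation or smaller distance means closer resemblance to KSR1 loss; control wells, including KSR1 knockdowns, recur on many plates.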 The record does not give: the time to read-out.
Target gene,mean correlation with KSR1 profile,mean distance from KSR1 profile,"KSR1 correlation, replicate 1","KSR1 correlation, replicate 2","KSR1 correlation, replicate 3"
NAT2,0.134,2.32,0.0433,0.191,0.111
TMEM100,0.616,1.67,0.683,0.178,0.406
IL15RA,-0.364,1.54,-0.269,-0.66,-0.109
DCAF4,0.349,2.12,0.654,-0.0463,0.182
FLAD1,0.0727,1.62,-0.487,0.175,-0.0203
H2BC12,0.548,1.58,0.59,0.324,0.333
BMP7,-0.182,2.43,-0.0478,-0.265,-0.239
SLC45A2,-0.124,1.93,0.107,-0.531,-0.515
MSH2,0.177,1.43,0.204,0.000602,-0.0964
LINC00208,0.706,1.32,0.625,0.62,0.775
NTNG1,0.0943,2.17,0.379,-0.0452,-0.00109
PALM2AKAP2,0.341,1.61,0.616,0.406,-0.152
CNR1,0.422,1.59,0.0538,0.523,0.52
CCN5,-0.188,2.7,-0.0272,-0.122,-0.0806
DNAJC5,0.774,0.872,0.29,0.854,0.757
THAP4,-0.377,1.94,-0.474,-0.402,-0.143
ZNF668,0.431,1.3,0.494,0.569,0.248
PFKL,0.366,2.38,0.43,0.34,0.338
MYH4,-0.36,2.65,-0.351,-0.188,-0.544
SSR1,-0.319,2.2,-0.605,-0.203,-0.433
IL21R,0.326,1.23,0.422,0.394,0.137
SHQ1,-0.372,1.52,-0.457,-0.249,-0.394
ATP1A3,0.445,1.15,0.575,0.366,0.0524
LIMA1,-0.261,1.5,-0.509,-0.192,-0.226
REG3A,0.417,1.87,0.354,0.441,0.0647
DZIP3,-0.199,1.54,0.00128,-0.237,-0.0282
KLK4,-0.782,2,-0.673,-0.787,-0.546
TPCN2,-0.301,1.44,-0.345,-0.277,-0.192
ARFGAP1,0.536,1.28,0.438,0.377,0.687
TOMM7,-0.614,7.16,-0.427,-0.068,-0.224
TMEM176B,0.181,1.84,0.158,-0.0633,0.0227
MSRB1,-0.232,3.54,-0.0243,-0.144,-0.266
VEGFC,-0.152,2.48,0.0802,-0.359,-0.243
CCN2,0.0497,2.33,0.286,0.069,0.00242
NR2C2AP,-0.361,3,-0.348,-0.339,-0.439
PTPRN,-0.102,1.23,-0.00506,-0.471,0.0532
ITPR2,0.0386,1.43,-0.264,-0.0436,0.147
FXN,0.362,1.34,0.11,0.0159,0.631
SLC17A4,-0.318,2.84,-0.236,-0.378,-0.422
SERTAD1,-0.338,2.4,-0.345,-0.301,-0.225
TBC1D14,-0.244,3.94,-0.371,0.0834,-0.164
CELSR3,0.33,3.48,0.363,0.49,0.0824
SLC7A2,-0.0959,1.37,-0.0834,-0.101,-0.139
DUSP26,-0.504,1.39,-0.354,-0.404,-0.646
GALNT14,-0.795,2.29,0.135,-0.345,-0.672
DHX34,0.628,0.96,0.582,0.693,0.545
CCL13,-0.419,1.27,-0.308,-0.713,-0.0865
SFI1,-0.182,3.61,-0.249,-0.0111,-0.163
INTS12,-0.457,3.89,-0.399,-0.307,-0.426
DUX4L8,0.327,1.96,0.0199,0.508,0.439

A few values from the entries so far.
For “KSR1 correlation, replicate 1”, ATP1A3 shows 0.575
Value for TBC1D14 in “mean correlation with KSR1 profile”: -0.244
Under “KSR1 correlation, replicate 2”, PALM2AKAP2 has 0.406
SERTAD1, KSR1 correlation, replicate 3 = -0.225
